Experimental data as given in PMC7853150.

The chains behind the UniProt entries cited, without tags or fusion partners. Where a name states a change or a piece, a line headed by the entry shows the natural chain unless it says otherwise.
UniProt Q8IYM9: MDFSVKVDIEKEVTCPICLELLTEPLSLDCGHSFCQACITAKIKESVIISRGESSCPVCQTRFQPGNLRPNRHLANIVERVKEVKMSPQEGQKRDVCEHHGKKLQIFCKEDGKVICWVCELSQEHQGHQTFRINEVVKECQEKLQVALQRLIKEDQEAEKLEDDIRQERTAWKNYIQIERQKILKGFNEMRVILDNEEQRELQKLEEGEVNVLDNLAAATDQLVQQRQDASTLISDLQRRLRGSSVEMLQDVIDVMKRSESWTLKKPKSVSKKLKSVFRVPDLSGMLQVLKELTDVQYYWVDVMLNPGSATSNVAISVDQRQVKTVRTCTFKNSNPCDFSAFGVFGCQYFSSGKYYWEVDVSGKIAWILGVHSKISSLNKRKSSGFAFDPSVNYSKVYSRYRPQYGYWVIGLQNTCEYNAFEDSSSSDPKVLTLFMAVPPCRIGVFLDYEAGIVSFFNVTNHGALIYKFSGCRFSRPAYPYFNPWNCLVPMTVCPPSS
UniProt P25963: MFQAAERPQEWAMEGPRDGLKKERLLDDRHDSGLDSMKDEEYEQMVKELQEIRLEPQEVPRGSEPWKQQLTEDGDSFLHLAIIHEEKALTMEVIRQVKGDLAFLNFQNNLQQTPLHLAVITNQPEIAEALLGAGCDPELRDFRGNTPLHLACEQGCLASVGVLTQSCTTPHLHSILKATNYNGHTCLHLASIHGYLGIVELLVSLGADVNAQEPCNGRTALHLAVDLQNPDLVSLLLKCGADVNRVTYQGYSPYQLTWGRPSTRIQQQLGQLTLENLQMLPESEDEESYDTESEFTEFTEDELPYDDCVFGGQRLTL

Molecular target: Flag-TRIM22-ΔRING (RING-finger domain deletion mutant of TRIM22) (UniProt Q8IYM9)
Experiment: co-IP; HEK293 cells transfected with Flag-TRIM22 and HA-IκBα constructs; IP lysis buffer with protease inhibitors; 200 µg lysate with anti-FLAG or anti-HA antibody overnight at 4 °C, Protein A/G magnetic beads 2 h at room temperature; western blot

HA-tagged IκBα (NF-κB inhibitor alpha) (from UniProt P25963 1-317)
binding: binds

These are yes or no findings as the source states them, for the method shown. In cells and extracts the contact can be indirect. Binding can be weak; no strength is given.
